Measurements: patent US20220306730A1
Results are given in words; binding and its absence hold for the method and conditions named. Binding seen in cells or lysates may run through a third protein. Some results given as binding are weak or reduced against the parent protein; the word gives no strength.

Protein sequences, listed by entry. Tags and fused reporters are not part of them.
UniProt Q5VTR2: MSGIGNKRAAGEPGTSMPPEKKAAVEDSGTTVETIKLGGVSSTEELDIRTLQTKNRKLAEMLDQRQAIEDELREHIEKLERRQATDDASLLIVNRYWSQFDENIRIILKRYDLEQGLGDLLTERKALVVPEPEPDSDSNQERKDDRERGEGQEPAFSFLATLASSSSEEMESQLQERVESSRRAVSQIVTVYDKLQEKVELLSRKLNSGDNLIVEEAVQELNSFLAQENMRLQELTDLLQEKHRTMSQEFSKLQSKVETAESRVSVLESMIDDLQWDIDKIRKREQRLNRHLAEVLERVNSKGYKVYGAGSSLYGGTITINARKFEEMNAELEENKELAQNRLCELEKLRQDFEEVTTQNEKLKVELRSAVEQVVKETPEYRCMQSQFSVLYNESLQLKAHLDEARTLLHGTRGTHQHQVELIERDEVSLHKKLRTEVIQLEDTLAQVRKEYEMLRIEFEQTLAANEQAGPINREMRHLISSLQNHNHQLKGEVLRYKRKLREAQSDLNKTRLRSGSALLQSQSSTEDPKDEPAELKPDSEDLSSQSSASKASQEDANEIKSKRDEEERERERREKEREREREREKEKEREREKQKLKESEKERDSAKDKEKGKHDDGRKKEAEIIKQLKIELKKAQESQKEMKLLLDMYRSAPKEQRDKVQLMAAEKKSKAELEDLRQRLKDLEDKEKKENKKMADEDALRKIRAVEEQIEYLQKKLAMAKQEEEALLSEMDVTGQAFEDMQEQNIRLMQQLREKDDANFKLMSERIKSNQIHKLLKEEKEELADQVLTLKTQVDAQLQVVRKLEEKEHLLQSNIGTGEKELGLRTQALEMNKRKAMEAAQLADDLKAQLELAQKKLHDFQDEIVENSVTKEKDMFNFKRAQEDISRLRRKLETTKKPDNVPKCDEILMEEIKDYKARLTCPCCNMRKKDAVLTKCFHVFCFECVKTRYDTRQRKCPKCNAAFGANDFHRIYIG

Biological target: E3 ubiquitin ligase RNF20 (human) (UniProt Q5VTR2)
Assay: co-immunoprecipitation (figure legend only; no method described)

B1: Zinc finger and SCAN domain containing 4 (ZSCAN4) (protein, human, UniProt Q8NAM6 1-433, looked up)
chain: MALDLRTIFQCEPSENNLGSENSAFQQSQGPAVQREEGISEFSRMVLNSFQDSNNSYARQELQRLYRIFHSWLQPEKHSKDEIISLLVLEQFMIGGHCNDKASVKEKWKSSGKNLERFIEDLTDDSINPPALVHVHMQGQEALFSEDMPLRDVIVHLTKQVNAQTTREANMGTPSQTSQDTSLETGQGYEDEQDGWNSSSKTTRVNENITNQGNQIVSLIIIQEENGPRPEEGGVSSDNPYNSKRAELVTARSQEGSINGITFQGVPMVMGAGCISQPEQSSPESALTHQSNEGNSTCEVHQKGSHGVQKSYKCEECPKVFKYLCHLLAHQRRHRNERPFVCPECQKGFFQISDLRVHQIIHTGKKPFTCSMCKKSFSHKTNLRSHERIHTGEKPYTCPFCKTSYRQSSTYHRHMRTHEKITLPSVPSTPEAS
  binding: binds
